Test: Ultracentrifugation: immobilization of ruthenium at DMPG and DMPC vesicles
Format: physicochemical
Settings: after irradiation

[Ru(terpy)(bpy)(OH2)](BF4)2 [[Ru(terpy)(bpy)(OH2)]^2+]
complexes contained in the pellet (anionic DMPG vesicles): ~85% | initial absorbance retained in supernatant (anionic DMPG vesicles): ~15% | interaction with the lipid bilayer (neutral DMPC vesicles): essentially non-interacting with the lipid bilayer

— patent US9255118B2, “Light induced drug release” (UNIVERSITEIT LEIDEN, priority 2010, dated 2016)
